T/C and survivor count data for 22 molecules are collected here from PubChem BioAssay AID330 (DTP/NCI, 2004).

The list does not hold the whole screen: it is rich in T/C values a quarter to a half above the control, in often repeated tests (any T/C) and in doses without a T/C. Further doses and runs are listed elsewhere. T/C: endpoint of the treated group in % of that of the vehicle group. Some doses have a count of surviving animals in place of a T/C: the source holds a T/C of zero for them, seemingly a mark for toxic or unscored doses. Some doses without a T/C left all or most animals alive at the check, yet need not have been tolerated: survival well below the control is almost never listed, so the zero probably covers shortened survival too. Counts of survivors are from the toxicity check (mostly the fifth day) where no day follows; animals may have died later. Schedules are NCI's codes, read here as Q, the interval in days (D) or hours (H), X, the number of doses. Brackets with × stand for listed records that agree. Some doses were run more than once; their values stand side by side, smallest first. For survival time, the PubChem record calls one and a half times the control and up active, and a quarter to a half above the control has no call in these data; cut-offs in other NCI protocols can differ. Some T/C values carry the count of animals alive at the toxicity check (mostly the fifth day); where none is given, no animal had died by that day.

The experiment deals with P388 leukemia ip, CD2F1 mice, survival T/C. The experiment in a line: NCI In Vivo Anticancer Drug Screen. Data for tumor model P388 Leukemia (intraperitoneal) in CD2F1 (CDF1) mice. The conditions noted are these: T/C endpoint: median survival time, higher T/C = longer survival.
Where [1] appears, read: dose: 240.0 mg/kg/injection, schedule: Q01DX005 (ip), vehicle: saline.
The mark [2] stands for this setting: dose: 60.0 mg/kg/injection, schedule: Q01DX005 (ip), vehicle: saline with Tween-80.
Where [3] appears, read: dose: 120.0 mg/kg/injection, schedule: Q01DX005 (ip), vehicle: saline with Tween-80.
Where [4] appears, read: dose: 240.0 mg/kg/injection, schedule: Q01DX005 (ip), vehicle: saline with Tween-80.
[5] abbreviates: dose: 0.2 mg/kg/injection, schedule: Q01DX009 (ip), vehicle: carboxymethylcellulose (CMC).
Where [6] appears, read: dose: 200.0 mg/kg/injection, schedule: Q01DX009 (ip), vehicle: Klucel (hydroxypropylcellulose) (HPC).
[7] abbreviates: dose: 100.0 mg/kg/injection, schedule: Q01DX005 (ip), vehicle: saline.
Where [8] appears, read: dose: 200.0 mg/kg/injection, schedule: Q01DX005 (ip), vehicle: saline.
The mark [9] stands for this setting: dose: 200.0 mg/kg/injection, schedule: Q01DX005 (ip), vehicle: saline with Tween-80.

As for `COc1cccc2c1C(=O)c1c(O)c3c(c(O)c1C2=O)CC(O)(C(O)CO)CC3OC1CC(N2CCOCC2C#N)C(O)C(C)O1` (stereo not given), the T/C is 141 % of control (dose: 0.1 mg/kg/injection, schedule: Q04DX003 (ip), vehicle: water); 130 % of control (dose: 0.4 mg/kg/injection, schedule: Q04DX003 (ip), vehicle: water); 128 % of control (dose: 100.0 micrograms/kg/injection, schedule: Q04DX003 (ip), vehicle: water). In addition, the survivor count (dose: 1.6 mg/kg/injection, schedule: Q04DX003 (ip), vehicle: water) was 1 of 6 on day 9.

`[O-][Br+2]([O-])O`: under setting [1], the survivor count was 0 of 6.

As to `CC1=NCC[N-]CC[N-]CCN=C(C)C2CCCC1[N-]2.[Mn+3]`, the survivor count is on record as 0 of 6 under setting [2], 0 of 6 under setting [3] and 0 of 6 under setting [4].

Take `CCC(C)Nc1ccc(N)cc1` (stereo not given): the T/C is, setting by setting: (dose: 0.01 mg/kg/injection, schedule: Q01DX009 (ip), vehicle: carboxymethylcellulose (CMC)) 142 % of control; (dose: 0.02 mg/kg/injection, schedule: Q01DX009 (ip), vehicle: carboxymethylcellulose (CMC)) 128 % of control; (dose: 0.05 mg/kg/injection, schedule: Q01DX009 (ip), vehicle: carboxymethylcellulose (CMC)) 141 and 145 % of control; (dose: 0.1 mg/kg/injection, schedule: Q01DX009 (ip), vehicle: carboxymethylcellulose (CMC)) 128 % of control [5 of 6 alive]; under setting [5], 134 % of control [5 of 6 alive]; (dose: 0.4 mg/kg/injection, schedule: Q01DX009 (ip), vehicle: carboxymethylcellulose (CMC)) 138 % of control. The T/C by setting is: (dose: 12.5 mg/kg/injection, schedule: Q01DX009 (ip), vehicle: Klucel (hydroxypropylcellulose) (HPC), evaluated on day 20) 88 % of control; (dose: 12.5 mg/kg/injection, schedule: Q01DX009 (ip), vehicle: Klucel (hydroxypropylcellulose) (HPC), evaluated on day 30) 90 % of control (2×). The survivor count runs as follows: under setting [5], 0 of 6 and 6 of 6; (dose: 0.8 mg/kg/injection, schedule: Q01DX009 (ip), vehicle: carboxymethylcellulose (CMC)) 1 of 6 and 3 of 6; (dose: 1.56 mg/kg/injection, schedule: Q01DX009 (ip), vehicle: carboxymethylcellulose (CMC)) 2 of 6; (dose: 3.12 mg/kg/injection, schedule: Q01DX009 (ip), vehicle: carboxymethylcellulose (CMC)) 0 of 6; (dose: 6.25 mg/kg/injection, schedule: Q01DX009 (ip), vehicle: carboxymethylcellulose (CMC)) 0 of 6; (dose: 12.5 mg/kg/injection, schedule: Q01DX009 (ip), vehicle: Klucel (hydroxypropylcellulose) (HPC)) 5 of 6. For the same molecule, the survivor count was 0 of 6 (2×) (dose: 25.0 mg/kg/injection, schedule: Q01DX009 (ip), vehicle: Klucel (hydroxypropylcellulose) (HPC)); 0 of 6 (2×) (dose: 50.0 mg/kg/injection, schedule: Q01DX009 (ip), vehicle: Klucel (hydroxypropylcellulose) (HPC)); 0 of 6 (2×) (dose: 100.0 mg/kg/injection, schedule: Q01DX009 (ip), vehicle: Klucel (hydroxypropylcellulose) (HPC)); 0 of 6 (2×) under setting [6]; 0 of 6 (2×) (dose: 400.0 mg/kg/injection, schedule: Q01DX009 (ip), vehicle: Klucel (hydroxypropylcellulose) (HPC)).

Turning to `CC1(O)CC2(O)C=CC3=C(C(=O)c4cccc(O)c4C3=O)C2(O)C(=O)C1O` (stereo not given), the survivor count reads like this: (dose: 3.0 mg/kg/injection, schedule: Q01DX005 (ip), vehicle: distilled water + Tween-80 + alcohol) 3 of 6; (dose: 3.12 mg/kg/injection, schedule: Q01DX005 (ip), vehicle: distilled water + Tween-80 + alcohol) 0 of 6; (dose: 6.25 mg/kg/injection, schedule: Q01DX005 (ip), vehicle: distilled water + Tween-80 + alcohol) 0 of 6; (dose: 12.5 mg/kg/injection, schedule: Q01DX005 (ip), vehicle: distilled water + Tween-80 + alcohol) 0 of 6; (dose: 25.0 mg/kg/injection, schedule: Q01DX005 (ip), vehicle: distilled water + Tween-80 + alcohol) 0 of 6.

Take `O=C(COc1cc(Cl)c(Cl)cc1Cl)OCCOc1cc(Cl)c(Cl)cc1Cl`: the survivor count was 6 of 6 (dose: 100.0 mg/kg/injection, schedule: Q04DX003 (ip), vehicle: saline with Tween-80); 6 of 6 (dose: 200.0 mg/kg/injection, schedule: Q04DX003 (ip), vehicle: saline with Tween-80); 6 of 6 (dose: 400.0 mg/kg/injection, schedule: Q04DX003 (ip), vehicle: saline with Tween-80).

Consider `c1cc2nc(-c3ccc4oc(C5=NCCN5)cc4c3)[nH]c2cc1C1=NCCN1`, for which the survivor count is 2 of 6 under setting [7] and 0 of 6 under setting [8].

`COC1/C=C/C=C(/C)Cc2cc(O)c(Cl)c(c2)N(C)C(=O)CC(OC(=O)C(C)C)C2(C)OC2C(C)C2CC1(O)NC(=O)O2` (stereo not given): for the setting “dose: 25.0 micrograms/kg/injection, schedule: Q01DX009 (ip), vehicle: saline + alcohol”, the T/C is 142 % of control.

Consider `Cc1nnc(C)s1`, for which the T/C is 136 % of control under setting [6] and 126 % of control (dose: 600.0 mg/kg/injection, schedule: Q01DX009 (ip), vehicle: Klucel (hydroxypropylcellulose) (HPC)).

On to `COc1cc2c(cc1OC)CN(C)C(C)C2` (stereo not given), for which the survivor count is listed as 0 of 5 under setting [7] and 0 of 5 under setting [8].

Take `CN1CCCN(C(c2ccccc2)c2ccc(Br)cc2)CC1` (stereo not given): the survivor count is 0 of 6 (dose: 200.0 mg/kg/injection, schedule: Q01DX009 (ip), vehicle: saline) and 0 of 6 (dose: 400.0 mg/kg/injection, schedule: Q01DX009 (ip), vehicle: saline).

On to `N#Cc1ccc(OC(=O)Nc2ccccc2C(F)(F)F)cc1`, for which the survivor count under setting [4] is on record as 6 of 6.

With `CCC#CCN(CCCC)CCCC`, under setting [9], the survivor count was 0 of 5.

Regarding `S=C(/N=N/c1[nH]c2ccccc2c1NNC(=S)NC12CC3CC(CC(C3)C1)C2)NC12CC3CC(CC(C3)C1)C2`, the survivor count (dose: 15.0 mg/kg/injection, schedule: Q01DX005 (ip), vehicle: saline with Tween-80) is 6 of 6 and the survivor count under setting [2] is reported as 6 of 6.

In the case of `COC(=O)CCn1nc(-c2ccccc2)c(-c2ccccc2)c(S(C)(=O)=O)c1=O`, the survivor count (dose: 100.0 mg/kg/injection, schedule: Q04DX002 (ip), vehicle: distilled water + Tween-80) is 6 of 6.

Consider `CCCCCCCCCCCCCCCCCCCC(O)CCCCCCCCC` (stereo not given), for which the survivor count runs as follows: under setting [2], 6 of 6; under setting [4], 6 of 6.

With `CCC1SCC(=O)N1c1nncs1` (stereo not given), the T/C under setting [9] is 141 % of control. Also, where the note is “dose: 400.0 mg/kg/injection, schedule: Q01DX005 (ip), vehicle: saline with Tween-80”, the survivor count is recorded as 3 of 6.

In the case of `O=C(N/N=C/c1ccccn1)N/N=C/c1ccccn1`, the survivor count was 3 of 6 (dose: 200.0 mg/kg/injection, schedule: Q01DX009 (ip), vehicle: distilled water + Tween-80) and 0 of 6 (dose: 400.0 mg/kg/injection, schedule: Q01DX009 (ip), vehicle: distilled water + Tween-80).

With `CN(C)CC(CN(C)C)C(=O)/C=C/c1ccc(O)cc1`, the survivor count is 1 of 6 (dose: 12.5 mg/kg/injection, schedule: Q01DX005 (ip), vehicle: saline); 0 of 6 (dose: 25.0 mg/kg/injection, schedule: Q01DX005 (ip), vehicle: saline); 0 of 6 (dose: 50.0 mg/kg/injection, schedule: Q01DX005 (ip), vehicle: saline); 0 of 6 under setting [7]; 0 of 6 under setting [8].

Turning to `Cc1ccc(/C=C/C(=O)C(C)(C)CN(C)CCN(C)C)cc1`, the survivor count under setting [1] is reported as 0 of 6.

Regarding `CC(=O)NS(=O)(=O)c1ccc(N=Nc2c(C)nn(C(=O)c3cccnc3)c2-c2ccccc2)cc1`, under setting [9], the survivor count is reported as 6 of 6.

For `CCC[CH2][Sn]1([CH2]CCC)[O]CCN2CCN(CC[O]1)CC2`, the survivor count is, setting by setting: under setting [2], 0 of 6; under setting [3], 0 of 6; under setting [4], 0 of 6.
